Experiment: general procedure: solution-phase peptide synthesis; DCC/HOBT

| Substance | step yield (coupling step) | step yield (late stage modification step, hydrochloride) |
| --- | --- | --- |
| Cyclo(Abo--Asp)--trp(CHO)--Phe--N(CH3)CH2 C6 H5 | 64% |  |
| Cyclo(Abo--Asp)--trp(CO(CH2)6 NH2, HCl)--Phe--N(CH3)CH2 C6 H5 |  | 52% |

Reference: patent publication US5317014A (priority 1991, dated 1994)
